Experimental findings from publication PMC4164784, “4E-BPs require non-canonical 4E-binding motifs and a lateral surface of eIF4E to repress translation” (Nature Communications, 2014) are described below.

No constants are given. Whether binding was seen depends on the method and setting. For some of these results: In cells and extracts the contact can be indirect. Some binding calls cover weakened binding; strength is not graded here. Tags and fused reporters may be left off the sequences shown.

The target of assay [1] is T1, HA-eIF4E (WT) (Drosophila melanogaster) (UniProt P48598).
T1 sequence: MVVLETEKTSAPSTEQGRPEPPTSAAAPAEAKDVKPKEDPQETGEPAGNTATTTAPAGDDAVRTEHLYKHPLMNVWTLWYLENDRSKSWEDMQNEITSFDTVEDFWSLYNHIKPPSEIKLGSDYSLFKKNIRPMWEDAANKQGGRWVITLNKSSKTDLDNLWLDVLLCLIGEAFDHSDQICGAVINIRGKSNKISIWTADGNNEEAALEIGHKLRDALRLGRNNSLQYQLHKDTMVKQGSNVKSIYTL
In words: co-IP; S2 cell lysates; HA-eIF4E (WT or mutated) with GFP-tagged full-length 4E-BPs and endogenous eIF4G; western blot.

The target in assay [2] is T2, HA-eIF4E II-AA (Drosophila melanogaster) (UniProt P48598).
T2 sequence: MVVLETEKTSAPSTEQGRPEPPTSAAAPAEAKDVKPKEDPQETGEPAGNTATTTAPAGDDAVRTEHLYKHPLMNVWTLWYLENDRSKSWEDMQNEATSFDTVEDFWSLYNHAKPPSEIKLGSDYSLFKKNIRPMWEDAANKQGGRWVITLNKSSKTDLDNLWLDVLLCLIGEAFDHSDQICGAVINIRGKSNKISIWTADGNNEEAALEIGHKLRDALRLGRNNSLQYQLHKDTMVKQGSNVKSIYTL
Described as above.

In assay [3] the target is T3, SHN-eIF4E (full length, WT) (Drosophila melanogaster) (UniProt P48598).
T3 sequence: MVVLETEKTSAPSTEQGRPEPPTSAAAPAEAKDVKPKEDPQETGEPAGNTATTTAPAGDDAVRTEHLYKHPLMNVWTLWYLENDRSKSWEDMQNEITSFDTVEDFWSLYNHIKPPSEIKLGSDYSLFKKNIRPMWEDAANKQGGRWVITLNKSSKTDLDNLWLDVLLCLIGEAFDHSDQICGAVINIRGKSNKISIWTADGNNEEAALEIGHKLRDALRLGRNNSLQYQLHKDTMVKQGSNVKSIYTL
In words: pull-down; preassembled complexes of SHN-eIF4E (WT or II-AA) with GST-eIF4G, GST-CUP, GST-Thor or GST-4E-T (coexpressed, purified on glutathione agarose) recovered on Strep-Tactin beads; both purified.

For assay [4], the target named is T4, SHN-eIF4E (full length, II-AA mutant) (Drosophila melanogaster) (UniProt P48598).
T4 sequence: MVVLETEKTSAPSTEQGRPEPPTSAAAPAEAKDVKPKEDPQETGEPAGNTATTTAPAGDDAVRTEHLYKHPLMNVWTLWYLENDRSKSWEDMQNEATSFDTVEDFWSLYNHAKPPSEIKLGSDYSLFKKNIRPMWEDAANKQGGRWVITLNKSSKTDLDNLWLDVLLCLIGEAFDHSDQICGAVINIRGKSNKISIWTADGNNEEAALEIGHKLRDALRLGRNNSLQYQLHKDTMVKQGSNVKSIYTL
The experiment in a line: pull-down; competition: those purified complexes mixed with bacterial lysates expressing MBP-eIF4G-GB1 (or MBP), 30 min at 4 °C; Strep-Tactin beads; only the target purified.

For assay [5], the target named is T5, MBP-eIF4G (residues 578–650, WT) (Drosophila melanogaster) (UniProt O61380).
T5 sequence: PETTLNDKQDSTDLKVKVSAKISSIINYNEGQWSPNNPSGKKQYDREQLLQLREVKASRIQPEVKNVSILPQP
In words: pull-down; eIF4E coexpressed with the GST- or MBP-tagged bait in E. coli; cleared lysates on glutathione agarose or amylose resin, 1 h; 20 mM Tris–HCl pH 7.5, 100 mM NaCl, 1 mM DTT; Coomassie.

For assay [6], the target named is T6, GST-CUP-GB1 (residues 311–440, WT) (Drosophila melanogaster) (UniProt Q9VMA3).
T6 sequence: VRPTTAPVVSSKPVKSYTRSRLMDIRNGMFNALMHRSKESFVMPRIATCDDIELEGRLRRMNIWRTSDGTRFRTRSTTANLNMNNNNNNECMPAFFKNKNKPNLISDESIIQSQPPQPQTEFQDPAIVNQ
Described as above.

Assay [7] has as its target T7, MBP-Thor (full length, ΔNC) (Drosophila melanogaster) (UniProt Q9XZ56).
T7 sequence: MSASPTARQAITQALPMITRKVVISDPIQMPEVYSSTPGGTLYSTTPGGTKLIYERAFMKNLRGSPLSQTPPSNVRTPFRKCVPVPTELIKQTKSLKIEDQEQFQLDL
The assay is described as above.

Assay [8] has as its target T8, MBP-Thor (full length, NC*) (Drosophila melanogaster) (UniProt Q9XZ56).
T8 sequence: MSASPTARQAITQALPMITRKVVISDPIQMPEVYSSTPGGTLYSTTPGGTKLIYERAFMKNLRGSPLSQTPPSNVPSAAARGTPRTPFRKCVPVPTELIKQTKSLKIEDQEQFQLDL
The assay is described as above.

In assay [9] the target is T9, MBP-4E-T (fragment 1–58, WT) (Drosophila melanogaster) (UniProt Q8IH18).
T9 sequence: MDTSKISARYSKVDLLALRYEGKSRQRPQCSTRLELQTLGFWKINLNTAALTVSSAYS
The description is as above.

B1: GFP-CUP (full length) (protein, UniProt Q9VMA3 1-1117)
chain: MQMAEAEQENGAGALKIATNAGATDRPAHQQLPLPVEDQQDEVLTPAEKGKFEYPPPPPPPTPVQAPLATKATALNASQEHDDDEANSEKWEDPCAPPPPPPLPTSAFLATGLGYLKLPAFKLKDALEKAITKLEANKRTLKASPESSRSIKNKNVVALEMLPRRSNPETIGDGSMLASTSTAVMLQTKKPAVIVEMERRCKIINLLAKQNQILESISGEAIPMHGPSKHLHEDEGLTLQVLSARASTPYTQPSSMLSCTAVSCDLEHDSPRKQVASKEAVPEQQSSQVQQKRPPSTGIHKPGSLRAPKAVRPTTAPVVSSKPVKSYTRSRLMDIRNGMFNALMHRSKESFVMPRIATCDDIELEGRLRRMNIWRTSDGTRFRTRSTTANLNMNNNNNNECMPAFFKNKNKPNLISDESIIQSQPPQPQTEFQDPAIVNQRRIGSGRLNHSKWGYNDEDYHSYHNGKSQHMEEVNSKNSKNMTVLQFFDNGEISSQPQRRPNTPVMGMSINRSENDTLHSNESSEDLSRANENYVKRVMSGFLVVSKPKSRDVEDRHHRRYRNQNEEPEWFSCGPTSRLDTIELCGFDEDEEKMLKEGNKNHGLGETERETSKQKMDHKYKWTHAEPMGRSKYMPKHDTNNNHNVENMNNVMATEHQQQKEEKRPGSGRSFQFDKFNQSQQNYESSSYVNHQQPPQTQPQQMQQQSNTNTNNSKFMSFFANEGNSSSSSLNEFFKQAINQGHGNNPEQPKSLGHIGQMPSVDQLEAKWRRNSLNNVGETANKQTDNFQKLIGSLSSAKPQSQAVGYDAISNFIMQQQQYQQQQQKQHLIIQQQQQHTAFLASLQLKAILGRADTQLLLLRLTKGEISKHGLLVQLANPRLTDMDREAITAVLQFTNTQQQQQQHKQQLDMLSSTVIASQLQNLHNLAIVQQTLAARQQPQHNPQTQAPHQLSQEDLQAHANVIMRNAVMKRKIEEQTSKLINGGAKHQAQQQYLNRGQQRQARPDANSNALLHALISGGGNNHASGYPMNGQPQKHHSNLRFGDNQNFQSFESNQPHFATQYKQQYQQSQQQHPHQQPQQLNSLHQNNAGAVNSFNKAQMQAQSAISMLPNSGDEFH
For the molecule B1, the binding result in assay [1] is reported as “binds”; in assay [2], “no binding”.

B2: GST-4E-T (residues 1–58) (domain or fragment, UniProt Q8IH18 1-58)
chain: MDTSKISARYSKVDLLALRYEGKSRQRPQCSTRLELQTLGFWKINLNTAALTVSSAYS
Take B2: the binding result in assay [3] was “binds”.

B3: MBP-eIF4G-GB1 (residues 578–650) (domain or fragment, UniProt O61380 578-650)
chain: PETTLNDKQDSTDLKVKVSAKISSIINYNEGQWSPNNPSGKKQYDREQLLQLREVKASRIQPEVKNVSILPQP
Regarding B3, in assay [4], the binding entry is “binds”.

B4: His6-eIF4E (full length, II-AA mutant) (protein, UniProt P48598-2 1-248)
chain: MVVLETEKTSAPSTEQGRPEPPTSAAAPAEAKDVKPKEDPQETGEPAGNTATTTAPAGDDAVRTEHLYKHPLMNVWTLWYLENDRSKSWEDMQNEATSFDTVEDFWSLYNHAKPPSEIKLGSDYSLFKKNIRPMWEDAANKQGGRWVITLNKSSKTDLDNLWLDVLLCLIGEAFDHSDQICGAVINIRGKSNKISIWTADGNNEEAALEIGHKLRDALRLGRNNSLQYQLHKDTMVKQGSNVKSIYTL
Regarding B4, the binding entry in assay [5], in [6], in assay [7] and in assay [8] was “binds” throughout.

B5: SHN-eIF4E (full length, WT) (protein, UniProt P48598-2 1-248)
chain: MVVLETEKTSAPSTEQGRPEPPTSAAAPAEAKDVKPKEDPQETGEPAGNTATTTAPAGDDAVRTEHLYKHPLMNVWTLWYLENDRSKSWEDMQNEITSFDTVEDFWSLYNHIKPPSEIKLGSDYSLFKKNIRPMWEDAANKQGGRWVITLNKSSKTDLDNLWLDVLLCLIGEAFDHSDQICGAVINIRGKSNKISIWTADGNNEEAALEIGHKLRDALRLGRNNSLQYQLHKDTMVKQGSNVKSIYTL
For the molecule B5, the binding entry in assay [9] is given as “binds”.

B6: SHN-eIF4E (full length, II-AA mutant) (protein, UniProt P48598-2 1-248)
chain: MVVLETEKTSAPSTEQGRPEPPTSAAAPAEAKDVKPKEDPQETGEPAGNTATTTAPAGDDAVRTEHLYKHPLMNVWTLWYLENDRSKSWEDMQNEATSFDTVEDFWSLYNHAKPPSEIKLGSDYSLFKKNIRPMWEDAANKQGGRWVITLNKSSKTDLDNLWLDVLLCLIGEAFDHSDQICGAVINIRGKSNKISIWTADGNNEEAALEIGHKLRDALRLGRNNSLQYQLHKDTMVKQGSNVKSIYTL
B6: the binding result in assay [9] is “binds”.

B7: GFP-Thor (full length) (protein, UniProt Q9XZ56 1-117)
chain: MSASPTARQAITQALPMITRKVVISDPIQMPEVYSSTPGGTLYSTTPGGTKLIYERAFMKNLRGSPLSQTPPSNVPSCLLRGTPRTPFRKCVPVPTELIKQTKSLKIEDQEQFQLDL
With B7, the binding result in [1] is given as “binds”.

B8: GFP-4E-T (full length, WT) (protein, UniProt Q8IH18 1-1010)
chain: MDTSKISARYSKVDLLALRYEGKSRQRPQCSTRLELQTLGFWKINLNTAALTVSSAYSNQNKNRLSPEADNSSLICSNSSSISSRRAMRNRERANNYYQRFVPTDSLLISGEDKDKDALSHGQPYKLNIIDHRSISSSHLMPAFAKRRFVISKGSNSEESNEGINTCASKGKAASSPSRKGSELDTAETCLNFVQPDHDQCMSSSPTFSTSRQERRIGSGRLLPRSDNWDYKNEKTVEASIENEKETSPNGSGSTSSLNQHNQSQHRSRTFSGRLVERVPEVTDRRFQYDSKKSFDRQGINNRRISGKEPFSTQSRSKRGNSYLIHEEPEWFSAGPKSQLETIDLHGFEDLEKNEERSVTEDKNNQIQQLDKNLDAQASKDEASMRNSNDSLNFREVIPSDEKKHTDENVVTSIQNSTDLGHPNKNKPIQMQPSQNPESEFNFDAFLNMHPLDNSVLSNDETGKSDSKGTSRFSRWFRQKEAANNNEFPGFRESHAQEKRGIPSVKDLEAQMIKVDMRTDLINPIAGSLCQTVQMEKPIARDTEAFKKLLQQLGSQARQHHPCNDDCRTINLSNIANHVHLESKLHQKINDGHLQQPELSVNVPTMPTSSHVFLQKRLEIQHLIQRLHCGDVSHDFLEKELDNPSTPAATKDVIATVLNEYSHSKRNPVVTGDPNIFTQQSFLQPQSVHQHYSQELHSQNTANHTINQLISHGNSPTPLAFTPTSVLRKMTADKDTQSPSTYCQNPQYHVHQQNAKQVGTRENVLEPQLTATMAVQPRMILGGGNFAIGQNNQHLSPNMSQSRNQQVLKWTSGNMQMVHGKTFGRPILKGGLNSMPHSNSALPFTAHKIEMQPIHQPHLQQQQHRFKAVQSVESNLNTESVHQNITSPVGWHQLYMQHQQQHHHTRQQLSQRVIYGEMHRQSNPQMSPPVPGFSDSSDSGNVIKANSLTSPSYQRDERISSPTNQLAQWFSPELLAKASAGKLPLLNVNQALSLEEFERSIQHSSGVVHN
Take B8: the binding result is reported as “binds” in assay [1] and “no binding” in assay [2].
